According to PubChem BioAssay AID720504 (National Center for Advancing Translational Sciences (NCATS), 2013):
Screen size: about 360,000 compounds; about 10,000 (2.8%) were called active. Inconclusive results, whose numbers are uncertain, are shown with a selection of clear calls. The call rests on the fitted dose curve; in most records, active means well fitted inhibition curve with a large enough effect; inconclusive means small, poorly fitted or top-dose-only effect; inactive means flat fitted curve, though single readings scatter. Where the call is inconclusive, the potency comes from a doubtful curve fit.

Amino acid sequences for entries named in this document (tags omitted).
UniProt P53350, whole entry, looked up: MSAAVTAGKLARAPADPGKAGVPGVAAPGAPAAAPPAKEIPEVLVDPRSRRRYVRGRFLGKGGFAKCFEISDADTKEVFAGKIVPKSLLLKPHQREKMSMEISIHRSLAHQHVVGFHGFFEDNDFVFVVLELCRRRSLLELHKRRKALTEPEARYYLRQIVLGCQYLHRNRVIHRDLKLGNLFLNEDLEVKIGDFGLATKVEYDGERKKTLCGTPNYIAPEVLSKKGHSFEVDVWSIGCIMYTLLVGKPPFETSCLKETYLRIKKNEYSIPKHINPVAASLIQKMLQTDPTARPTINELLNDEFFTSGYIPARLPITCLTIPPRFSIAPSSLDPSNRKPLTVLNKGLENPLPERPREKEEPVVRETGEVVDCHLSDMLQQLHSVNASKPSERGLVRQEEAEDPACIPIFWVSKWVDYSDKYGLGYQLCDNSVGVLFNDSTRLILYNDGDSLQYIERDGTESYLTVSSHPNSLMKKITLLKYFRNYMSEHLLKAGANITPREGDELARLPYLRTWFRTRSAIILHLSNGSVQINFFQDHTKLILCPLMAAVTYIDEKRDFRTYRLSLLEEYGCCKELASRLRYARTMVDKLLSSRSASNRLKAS

The compounds below were run against Serine/threonine-protein kinase PLK1 (Homo sapiens) (UniProt P53350) (assay: qHTS for Inhibitors of PLK1-PDB (polo-like kinase 1 - polo-box domain): Primary Screen). Conditions: Plk1 PBD binding of FITC phosphopeptide, fluorescence polarization.
Further: nearly all actives have a fitted effect of over 65% in size.
On the % scale 0 is the no-effect control and ±100 the full control effect; potency means the concentration at half of the fitted maximal effect.
Wherever max response, negative = inhibition is given: series mostly up to about 57 µM.

SMILES	Potency	max response, negative = inhibition
COc1cc(/C=C2\C(=O)NN(c3ccc(C)cc3)C2=O)cc([N+](=O)[O-])c1O	inconclusive: 26.7 µM [inhibitor, single point]	–
Cc1csc2nc(SCC(=O)N3CCN(c4ccccc4)CC3)[nH]c(=O)c12	–	inactive: -13.5%
Cc1cccc(C)c1Nc1nnc(SCC(=O)c2ccc(Br)s2)s1	active: 23.8 µM	–
Cc1ccc(-c2csc(NC(=O)c3cccc(C)c3)c2C(=O)O)cc1	inconclusive: 21.2 µM [inhibitor, single point]	–
Cc1ccc(CSCC2Nc3ccc(C(=O)N4CCN(c5ccc(F)cc5)CC4)cc3NC2=O)cc1 (configuration not stated)	active: 8.44 µM	–
CCOC(=O)c1c(NC(=O)C2C3C=CC(C3)C2C(=O)O)sc2c1CCC(CC)C2 (configuration not stated)	active: 26.7 µM	–
Nc1ccc2nc(-c3ccccc3)cnc2c1	inconclusive: 13.4 µM [inhibitor, partial curve]	–
CCS(=O)(=O)c1ncc(Cl)c(C(=O)Nc2ccc(S(=O)(=O)N3CCCC(C)C3)cc2)n1 (configuration not stated)	inconclusive: 13.4 µM [inhibitor, partial curve]	–
Cc1ccc2sc(C)[n+](CCO)c2c1	active: 29.9 µM	–
COc1ccccc1N(CC(=O)Nc1ccc(C(F)(F)F)cc1)S(C)(=O)=O	inconclusive: 18.9 µM [inhibitor, partial curve]	–
C=CCNC(=S)Nc1nc2c(cc1C(=O)OCC)COC(C)(C)C2	inconclusive: 26.7 µM [inhibitor, single point]	–
COc1ccc(Br)cc1/C=N/Nc1ccc(Cl)c(C(=O)O)c1	inconclusive: 26.7 µM [inhibitor, single point]	–
Cc1cccc2c1-c1sc(C(=O)N3CCCCC3)cc1CO2	–	inactive: -6.5%
Nc1nonc1-n1nnc(C(=O)N/N=C/c2ccc(O)cc2)c1CN1CCCCCC1	inconclusive: 26.7 µM [inhibitor, partial curve]	–
Cc1sc2nc(C(C)C)nc(SCC(=O)NCc3ccco3)c2c1C	inconclusive: 21.2 µM [inhibitor, partial curve]	–
COc1cc(NC(=O)c2ccccn2)cc(OC)c1OC	active: 6.7 µM	–
COc1ccc(OCC(=O)NCC(c2ccc(OC)cc2)N2CCCCC2)cc1 (configuration not stated)	–	inconclusive: -9.41% [inhibitor]
O=C(CSc1nc2nc(-c3cccs3)cc(C(F)(F)F)c2c(=O)[nH]1)C(F)(F)F	inconclusive: 23.8 µM [inhibitor, partial curve]	–
CCOC(=O)N1CCN(Cc2nc3cc([N+](=O)[O-])ccc3n2C)CC1	inconclusive: 21.2 µM [inhibitor, single point]	–
Cc1[nH][nH]c(=O)c1C(c1ccc(-c2ccc(C(=O)O)cc2)o1)c1c(C)[nH][nH]c1=O	active: 23.8 µM	–
CC(NC(=O)Cn1ccsc1=N)C12CC3CC(CC(C3)C1)C2 (configuration not stated)	active: 7.52 µM	–
COc1cc(/C=C2\SC(=S)N(CCC(=O)Nc3cccc(O)c3)C2=O)cc(OC)c1OC	inconclusive: 26.7 µM [inhibitor, partial curve]	–
CSCc1cc(C(=O)NC2CC2)c(N)s1	inconclusive: 26.7 µM [inhibitor, single point]	–
COc1cccc(C2=Nn3c(nnc3-c3ccccc3O)SC2)c1	inconclusive: 26.7 µM [inhibitor, partial curve]	–

Laid out differently: entries from further up.
SMILES | Potency | max response, negative = inhibition
Nc1ccc2nc(-c3ccccc3)cnc2c1 | inconclusive: 13.4 µM [inhibitor, partial curve] | –
Nc1nonc1-n1nnc(C(=O)N/N=C/c2ccc(O)cc2)c1CN1CCCCCC1 | inconclusive: 26.7 µM [inhibitor, partial curve] | –
CCOC(=O)N1CCN(Cc2nc3cc([N+](=O)[O-])ccc3n2C)CC1 | inconclusive: 21.2 µM [inhibitor, single point] | –

Later entries:

SMILES	Potency	max response, negative = inhibition
COc1cc(/C=N/Nc2snc(SC)c2C#N)ccc1O	–	inactive: -2.69%
Cc1ccc(NS(=O)(=O)c2coc(C(N)=O)c2)cc1F	active: 23.8 µM	–
CC(C)(C)c1ccc(S(=O)(=O)N2CC(C(=O)O)Oc3ccc(Cl)cc32)cc1 (configuration not stated)	–	inconclusive: -33.9% [inhibitor]
CCOC(=O)c1sc(N)nc1C(C)(C)C	inconclusive: 26.7 µM [inhibitor, single point]	–
Cc1cccc2sc(N(CCCN(C)C)C(=O)c3ccc4ncsc4c3)nc12	–	inactive: -5.95%
CCC1(C)Cc2c(sc3[nH]c(=S)[nH]c(=S)c23)CO1 (configuration not stated)	–	inconclusive: -31.1% [inhibitor]
CCOc1ccc(OCC(=O)OCC(=O)N2CCN(C(=O)c3ccco3)CC2)cc1	–	inactive: -19.5%
COc1ccc(C(=O)NCc2nnc(SCC(=O)N3CCc4ccccc43)o2)cc1OC	inconclusive: 29.9 µM [inhibitor, partial curve]	–
CC(C)[C@H](NC(=O)c1ccccc1F)C(=O)Nc1cccc(S(=O)(=O)N2CCOCC2)c1	–	inactive: 2.03%
CCNC(=S)Nc1cccc(F)c1C	inconclusive: 23.8 µM [inhibitor, partial curve]	–
COC(=O)c1cc(OC)c(OC)cc1NC(=O)c1c(-c2ccccc2Cl)noc1C	–	inactive: -4.47%
Cc1ccc(CNC(=O)c2ccccc2N(C)S(C)(=O)=O)cc1	inconclusive: 26.7 µM [inhibitor, single point]	–
COc1cc(C(=S)N2CCOCC2)ccc1OS(=O)(=O)c1ccc(Cl)cc1	inconclusive: 26.7 µM [inhibitor, partial curve]	–
Nc1ncnc2c1ccn2[C@H]1CN(Cc2ccc3c(c2)OCO3)C[C@@H](COC(=O)c2ccccc2)O1	–	inactive: 7%
O=C1c2sc3nc4ccccc4n3c2C(=O)N1c1ccccc1Cl	active: 11.9 µM	–
C=CCN1C(=O)C(O)(CC(=O)c2ccc(Cl)cc2)c2ccccc21 (configuration not stated)	inconclusive: 21.2 µM [inhibitor, partial curve]	–
COc1ccc(O)c(/C=c2/sc3nc4cc(C)c(C)cc4n3c2=O)c1	active: 10.6 µM	–
COc1ccc(S(=O)(=O)Nc2ccccc2OC)cc1NC(=O)Cc1cccs1	inconclusive: 26.7 µM [inhibitor, partial curve]	–
Cc1cc(C)cc(OCC(=O)Nc2nc(-c3ccccn3)cs2)c1	inconclusive: 18.9 µM [inhibitor, partial curve]	–
O=C(CSc1ccc(-c2ccco2)nn1)c1ccccc1	inconclusive: 21.2 µM [inhibitor, single point]	–
COc1ccc(N(C(=O)c2ccncc2)S(=O)(=O)c2cccs2)cc1	–	inconclusive: -31% [inhibitor]
CN(C(=O)COC(=O)/C=C/c1ccc(Cl)c(Cl)c1)c1c(N)n(Cc2ccccc2)c(=O)[nH]c1=O	–	inactive: 0.977%
O=C(c1cnn(C(=O)c2ccccc2F)c1)c1ccccc1O	inconclusive: 13.4 µM [inhibitor, partial curve]	–
CCCCSc1nc2sc3c(c2c(=O)n1-c1ccc(OC)cc1)CCN(C)C3	inconclusive: 23.8 µM [inhibitor, partial curve]	–

Grouped by structure, those above with a nitro group on carbon (two)
SMILES	Potency	max response, negative = inhibition
COc1cc(/C=C2\C(=O)NN(c3ccc(C)cc3)C2=O)cc([N+](=O)[O-])c1O	inconclusive: 26.7 µM [inhibitor, single point]	–
CCOC(=O)N1CCN(Cc2nc3cc([N+](=O)[O-])ccc3n2C)CC1	inconclusive: 21.2 µM [inhibitor, single point]	–

Additional structures.

SMILES	Potency	max response, negative = inhibition
C=CCn1c(C)cc(-c2csc(NCC)n2)c1C	inconclusive: 9.47 µM [inhibitor, partial curve, poor fit]	–
O=C(Cn1cnc2sc3c(c2c1=O)CCCC3)NCC(=O)Nc1c(F)cccc1F	active: 33.6 µM	–
Cc1ccc(S(=O)(=O)N(C)C)cc1NC(=S)NC(=O)C12CC3CC(CC(C3)C1)C2	–	inactive: -8.37%
COc1cc(NC(=O)CCCl)cc(-n2cnnn2)c1	inconclusive: 37.7 µM [inhibitor, single point]	–
Brc1ccccc1OCCCCN1CCCCC1	–	inactive: 2.41%
COc1ccc(S(=O)(=O)N/N=C(/C)c2ccncc2)c(OC)c1	inconclusive: 23.8 µM [inhibitor, partial curve]	–
N#Cc1nc(COc2ccccc2Cl)oc1NCc1ccco1	–	inconclusive: -31.3% [inhibitor]
N#Cc1ccc(-c2nc3ccc(Br)cn3c2Cc2cccc(F)c2)cc1	–	inactive: 0.361%
O=C(CC1Nc2ccccc2NC1=O)Nc1ccc2c(c1)OCO2 (configuration not stated)	inconclusive: 26.7 µM [inhibitor, partial curve]	–
Cc1cc(C)cc(NC(=O)c2cc3c(=O)n4ccccc4nc3s2)c1	inconclusive: 6.7 µM [inhibitor, partial curve]	–
COc1ccc(NC(=O)CSc2nn3c(=O)c(C)nnc3s2)cc1	–	inactive: 7.44%
COC(=O)C[C@H]1C=C[C@H](NC(=O)c2ccc(F)cc2)[C@@H](CO)O1	–	inactive: -25.2%
N#CC/C(N)=N/NC(=O)CCCNc1ncc(C(F)(F)F)cc1Cl	inconclusive: 26.7 µM [inhibitor, partial curve]	–
COc1ccc(CCNC(=O)CSc2nnnn2-c2ccc(OC)c(OC)c2)cc1OC	active: 13.4 µM	–
COc1cccc(CN2CCN(C(=O)CCc3nnc(C4CCCCC4)o3)CC2=O)c1	–	inactive: -20.9%
COc1ccc2nc3cc([N+](=O)[O-])ccc3c(NNc3ccc([N+](=O)[O-])cc3)c2c1	–	inactive: -2.12%
CC1(C)CC(=O)C/C(=N\NC(=O)c2cccs2)C1	inconclusive: 37.7 µM [inhibitor, single point]	–
O=C(NC1CCCCC1)N(c1ccccc1)c1nnc(-c2cccc([N+](=O)[O-])c2)s1	inconclusive: 6.7 µM [inhibitor, partial curve]	–
Cc1ccnc(SCc2cn3c(C)cccc3n2)n1	–	inconclusive: -31% [inhibitor]
C/C(=N\NC(=O)C1(C)CC1(Br)Br)c1cccc(NC(=O)C2CCC2)c1 (configuration not stated)	–	inactive: -18.4%
COc1cccc(NC(=O)Nc2ccc(C)c(Cl)c2)c1	–	inactive: -0.78%
CC(=O)Nc1ccc(NC(=O)c2nc(S(=O)(=O)Cc3cccc(C)c3)ncc2Cl)cc1	active: 13.4 µM	–
Cc1ccc(-c2nn(-c3ccccc3)cc2C(=O)NCCCN2CCCC2=O)cc1	–	inconclusive: -17.9% [inhibitor]
CCOC(=O)c1c(NC(=S)NC(=O)c2ccc(Cn3cc(Cl)cn3)o2)sc2c1CCC(C)C2 (configuration not stated)	–	inactive: -11%
